# Values of other authors in US20150343038A1, “METHOD AND COMPOSITION FOR TREATING SPASTICITY” (THE REGENTS OF THE UNIVERSITY OF CALIFORNIA, priority 2013, published 2015).
# The name of at least one read-out is uncertain.
# Settings: cited from earlier work
structure (smiles),measurement,value
Cc1ccsc1C(=CCCN1CCC[C@@H](C(=O)O)C1)c1sccc1C [tiagabine],permeability across the blood brain barrier,good permeability across the blood brain barrier
